# According to paper doi:10.1101/2024.01.05.574302 (bioRxiv, 2024):
# Chains of the proteins cited; added tags and fusions are not shown.
# UniProt Q7SIG6: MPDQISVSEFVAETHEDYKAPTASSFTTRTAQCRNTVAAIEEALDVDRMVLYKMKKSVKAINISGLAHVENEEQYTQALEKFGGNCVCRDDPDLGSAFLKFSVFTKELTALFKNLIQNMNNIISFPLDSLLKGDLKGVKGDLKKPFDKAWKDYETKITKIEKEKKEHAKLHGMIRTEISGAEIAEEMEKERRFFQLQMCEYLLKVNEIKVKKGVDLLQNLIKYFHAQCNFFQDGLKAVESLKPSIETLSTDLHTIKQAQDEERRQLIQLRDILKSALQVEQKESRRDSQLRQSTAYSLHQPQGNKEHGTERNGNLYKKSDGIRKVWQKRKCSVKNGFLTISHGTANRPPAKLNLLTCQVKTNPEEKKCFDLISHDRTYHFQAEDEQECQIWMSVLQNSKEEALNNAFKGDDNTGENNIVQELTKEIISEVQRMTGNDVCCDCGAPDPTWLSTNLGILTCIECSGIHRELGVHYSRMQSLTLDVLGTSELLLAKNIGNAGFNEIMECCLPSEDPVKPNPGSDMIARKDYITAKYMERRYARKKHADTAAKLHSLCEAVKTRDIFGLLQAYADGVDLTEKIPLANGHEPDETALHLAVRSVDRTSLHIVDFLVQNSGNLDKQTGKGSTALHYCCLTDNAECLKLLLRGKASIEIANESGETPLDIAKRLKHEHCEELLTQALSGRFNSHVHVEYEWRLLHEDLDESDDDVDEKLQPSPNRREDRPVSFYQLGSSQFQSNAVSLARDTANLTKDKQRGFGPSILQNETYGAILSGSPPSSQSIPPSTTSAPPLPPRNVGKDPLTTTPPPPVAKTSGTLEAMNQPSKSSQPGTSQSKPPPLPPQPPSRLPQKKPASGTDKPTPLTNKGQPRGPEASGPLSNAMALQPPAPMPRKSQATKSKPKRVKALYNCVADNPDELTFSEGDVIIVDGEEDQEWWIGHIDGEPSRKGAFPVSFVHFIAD
# UniProt Q9QWY8: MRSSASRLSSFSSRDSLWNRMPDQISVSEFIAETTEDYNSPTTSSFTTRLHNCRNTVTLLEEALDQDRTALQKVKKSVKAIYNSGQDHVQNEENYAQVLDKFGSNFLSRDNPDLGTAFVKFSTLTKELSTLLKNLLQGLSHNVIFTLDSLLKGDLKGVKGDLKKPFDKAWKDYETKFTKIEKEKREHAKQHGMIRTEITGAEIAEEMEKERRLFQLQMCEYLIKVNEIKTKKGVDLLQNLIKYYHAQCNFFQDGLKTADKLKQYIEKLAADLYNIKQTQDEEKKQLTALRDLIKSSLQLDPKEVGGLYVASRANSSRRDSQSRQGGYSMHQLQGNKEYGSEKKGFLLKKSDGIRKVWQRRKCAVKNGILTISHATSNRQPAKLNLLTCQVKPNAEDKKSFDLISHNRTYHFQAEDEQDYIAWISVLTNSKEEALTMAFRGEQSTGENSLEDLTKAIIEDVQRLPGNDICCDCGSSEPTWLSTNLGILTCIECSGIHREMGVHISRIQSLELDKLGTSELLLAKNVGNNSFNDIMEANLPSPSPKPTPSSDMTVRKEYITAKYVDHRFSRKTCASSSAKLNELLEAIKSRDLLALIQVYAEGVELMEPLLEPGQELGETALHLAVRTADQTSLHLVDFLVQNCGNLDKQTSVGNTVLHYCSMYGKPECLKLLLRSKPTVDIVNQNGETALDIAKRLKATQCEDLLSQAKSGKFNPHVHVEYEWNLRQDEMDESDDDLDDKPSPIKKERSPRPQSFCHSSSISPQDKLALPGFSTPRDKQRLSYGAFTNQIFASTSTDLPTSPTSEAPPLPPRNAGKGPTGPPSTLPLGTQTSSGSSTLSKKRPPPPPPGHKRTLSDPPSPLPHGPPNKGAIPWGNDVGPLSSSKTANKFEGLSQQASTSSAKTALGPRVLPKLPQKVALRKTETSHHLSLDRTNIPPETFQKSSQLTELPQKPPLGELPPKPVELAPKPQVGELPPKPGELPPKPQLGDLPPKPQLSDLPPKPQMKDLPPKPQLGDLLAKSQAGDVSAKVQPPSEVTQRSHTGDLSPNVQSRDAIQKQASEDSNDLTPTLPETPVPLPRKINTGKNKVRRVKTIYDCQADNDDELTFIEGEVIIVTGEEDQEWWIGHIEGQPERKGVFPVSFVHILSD
# Target: T1, gAnkB (aa. 1476-1727) fragment of the neurospecific domain, Trx-His6-3×StrepII fusion (human) (UniProt Q01484)
# T1 sequence: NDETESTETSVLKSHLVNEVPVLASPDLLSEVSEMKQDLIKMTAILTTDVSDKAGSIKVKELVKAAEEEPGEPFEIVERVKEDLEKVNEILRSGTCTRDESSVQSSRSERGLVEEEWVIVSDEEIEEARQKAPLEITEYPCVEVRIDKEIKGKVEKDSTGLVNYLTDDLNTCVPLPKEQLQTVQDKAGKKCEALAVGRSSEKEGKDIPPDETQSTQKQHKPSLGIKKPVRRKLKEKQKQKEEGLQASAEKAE
# Test: affinity purification with mass spectrometry
row,binding,Substance
1,binds,"ASAP2 (endogenous, mouse brain) (from UniProt Q7SIG6 1-958)"
2,binds,"ASAP1 (endogenous, mouse brain) (from UniProt Q9QWY8 1-1147)"

# Results are given in words; binding and its absence hold for the method and conditions named. Binding seen in cells or lysates may run through a third protein. These calls come from enrichment with a bait or labelling near it, and not all partners need be listed. Where a sequence is shown, tags or fusion partners need not be part of it.
